Data as given in PubChem BioAssay AID1508597 (Cure First, 2020).
Shown is an unselected part of the about 2,100 reagents, in one setting of the screen. 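Calls flag viability under 80% in either arm, not effects specific to rucaparib; the reference for percent is not stated.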 A reagent listed more than once was tested more than once; the source does not tell the runs apart. Not given: the 100% reference.

- Assay: 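Survival screen with siRNA in ovarian cancer cells derived from patients, with or without rucaparib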 (primary screen)
- System: human ovarian carcinoma lines grown from tumours: OCI-P5x (papillary serous) and OCI-C5x (clear cell)
- Reagent: siRNA pool against human genes, 1.25 pmol siRNA per well
- Timing: 72 h or 96 h, depending on the cell culture
- Treatment: rucaparib 20 µM (about IC30) or vehicle, present until read-out
- Rucaparib or vehicle: Rucaparib
- Cell line: OCI-C5x (clear cell)
- Measured: 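ATP luminescence measured at 72 or 96 h according to the culture, then normalised and expressed as percent viability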
- Direction: viability, normalised: higher = more viable cells remaining
- Hit rule: 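Active when normalised viability falls below 80 percent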
- Meaning of the calls: active = viability under 80%; inactive = viability 80% or more

MAT2A (methionine adenosyltransferase 2A), technical replicate 1
- viability, normalised (%): 47.3
- Call: active

MAT2A (methionine adenosyltransferase 2A), technical replicate 2
- viability, normalised (%): 34.4
- Call: active

MAT2A (methionine adenosyltransferase 2A), technical replicate 3
- viability, normalised (%): 35.3
- Call: active

PKN2 (protein kinase N2), technical replicate 1
- viability, normalised (%): 51.2
- Call: active

PKN2 (protein kinase N2), technical replicate 2
- viability, normalised (%): 63
- Call: active

PKN2 (protein kinase N2), technical replicate 3
- viability, normalised (%): 56
- Call: active

DAPK3 (death associated protein kinase 3), technical replicate 1
- viability, normalised (%): 62.7
- Call: active

DAPK3 (death associated protein kinase 3), technical replicate 1
- viability, normalised (%): 58.2
- Call: active

DAPK3 (death associated protein kinase 3), technical replicate 2
- viability, normalised (%): 66.1
- Call: active

DAPK3 (death associated protein kinase 3), technical replicate 2
- viability, normalised (%): 56.5
- Call: active

DAPK3 (death associated protein kinase 3), technical replicate 3
- viability, normalised (%): 44.9
- Call: active

DAPK3 (death associated protein kinase 3), technical replicate 3
- viability, normalised (%): 73.9
- Call: active

KDM4A (lysine demethylase 4A), technical replicate 1
- viability, normalised (%): 44.1
- Call: active

KDM4A (lysine demethylase 4A), technical replicate 2
- viability, normalised (%): 23.3
- Call: active

KDM4A (lysine demethylase 4A), technical replicate 3
- viability, normalised (%): 38.7
- Call: active

GDPD4 (glycerophosphodiester phosphodiesterase domain containing 4), technical replicate 1
- viability, normalised (%): 58.3
- Call: active

GDPD4 (glycerophosphodiester phosphodiesterase domain containing 4), technical replicate 2
- viability, normalised (%): 45.5
- Call: active

GDPD4 (glycerophosphodiester phosphodiesterase domain containing 4), technical replicate 3
- viability, normalised (%): 42.7
- Call: active

TLE1 (TLE family member 1, transcriptional corepressor), technical replicate 1
- viability, normalised (%): 50.9
- Call: active

TLE1 (TLE family member 1, transcriptional corepressor), technical replicate 2
- viability, normalised (%): 53.6
- Call: active

TLE1 (TLE family member 1, transcriptional corepressor), technical replicate 3
- viability, normalised (%): 40.4
- Call: active

NCOR1 (nuclear receptor corepressor 1), technical replicate 1
- viability, normalised (%): 44.3
- Call: active

NCOR1 (nuclear receptor corepressor 1), technical replicate 2
- viability, normalised (%): 43.6
- Call: active

NCOR1 (nuclear receptor corepressor 1), technical replicate 3
- viability, normalised (%): 38.1
- Call: active

TET1 (tet methylcytosine dioxygenase 1), technical replicate 1
- viability, normalised (%): 56.7
- Call: active

TET1 (tet methylcytosine dioxygenase 1), technical replicate 2
- viability, normalised (%): 48.8
- Call: active

TET1 (tet methylcytosine dioxygenase 1), technical replicate 3
- viability, normalised (%): 48.8
- Call: active

TJP1 (tight junction protein 1), technical replicate 1
- viability, normalised (%): 42.7
- Call: active

TJP1 (tight junction protein 1), technical replicate 2
- viability, normalised (%): 47.6
- Call: active

TJP1 (tight junction protein 1), technical replicate 3
- viability, normalised (%): 61.8
- Call: active

ULK1 (unc-51 like autophagy activating kinase 1), technical replicate 1
- viability, normalised (%): 57.6
- Call: active

ULK1 (unc-51 like autophagy activating kinase 1), technical replicate 2
- viability, normalised (%): 51.8
- Call: active

ULK1 (unc-51 like autophagy activating kinase 1), technical replicate 3
- viability, normalised (%): 61
- Call: active

2 entries from above, reformatted.
| gene | technical replicate | viability, normalised (%) | Call |
| --- | --- | --- | --- |
| TLE1 (TLE family member 1, transcriptional corepressor) | 1 | 50.9 | active |
| TLE1 (TLE family member 1, transcriptional corepressor) | 2 | 53.6 | active |
